Experimental data taken from article PMC3769308.
Results are given in words; binding and its absence hold for the method and conditions named. In cells and extracts the contact can be indirect. Some results given as binding are weak or reduced against the parent protein; the word gives no strength.

The chains behind the UniProt entries cited, without tags or fusion partners. Residues count along the entry.
UniProt P9WHT9, residues 58-291: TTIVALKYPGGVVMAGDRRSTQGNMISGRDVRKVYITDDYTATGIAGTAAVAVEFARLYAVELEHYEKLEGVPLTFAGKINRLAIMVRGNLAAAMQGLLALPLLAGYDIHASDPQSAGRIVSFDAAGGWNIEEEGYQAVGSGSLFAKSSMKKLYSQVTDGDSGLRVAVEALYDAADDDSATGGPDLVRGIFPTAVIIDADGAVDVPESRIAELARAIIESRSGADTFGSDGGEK
UniProt P9WHU1: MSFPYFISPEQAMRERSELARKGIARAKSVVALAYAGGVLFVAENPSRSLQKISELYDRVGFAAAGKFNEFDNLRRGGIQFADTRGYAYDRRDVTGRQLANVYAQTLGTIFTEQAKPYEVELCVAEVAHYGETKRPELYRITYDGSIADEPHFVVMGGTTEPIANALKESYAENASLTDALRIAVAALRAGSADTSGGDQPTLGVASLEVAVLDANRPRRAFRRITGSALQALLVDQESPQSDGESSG

Target: PrcB, His-tagged beta subunit of the Mtb proteasome core particle (Mycobacterium tuberculosis) (UniProt P9WHT9)
Experiment: pull-down

Question: Which binding does the source give for “PrcA, alpha subunit of the Mtb proteasome core particle (wild type) (from UniProt P9WHU1 1-248)” here?
Answer: binds
